Test results taken from patent publication US10046046B2 (Victoria Link Limited, priority 2014, dated 2018).

Experiment: general procedure: Fmoc solid-phase peptide synthesis; trityl chloride resin (e.g.); also 2-chlorotrityl chloride, Wang, Sasrin, HMPB; Rink amide, Pal, MBHA or Sieber for C-ter

In the case of “4-((2-(FFRKSIINFEKL)-2-oxoethoxy)imino)pentanoic acid”, the step yield (late stage modification step) is reported as 62% and the “final HPLC purity” value (late stage modification step, HPLC) is reported as 96% pure by HPLC.

“(2S,3S,4R)-1-(6-Deoxy-6-(4-((2-(FFRKSIINFEKL)-2-(oxo)ethoxyimino)pentanoyloxy)methoxycarbonylamino)-α-D-galactopyranosyloxy)-2-hexacosanoylamino-3,4-octadecandiol” gave a conjugation yield (conjugation step) of 52%.
